No constants are given. Whether binding was seen depends on the method and setting. Binding seen in cells or lysates may run through a third protein. Some entries that bind do so weakly or less than the wild type.
Target: T1, PHD4 (prolyl 4-hydroxylase, transmembrane), coded by P4HTM (human (endogenous in human CRC cell lines)) (UniProt Q9NXG6)
T1 sequence: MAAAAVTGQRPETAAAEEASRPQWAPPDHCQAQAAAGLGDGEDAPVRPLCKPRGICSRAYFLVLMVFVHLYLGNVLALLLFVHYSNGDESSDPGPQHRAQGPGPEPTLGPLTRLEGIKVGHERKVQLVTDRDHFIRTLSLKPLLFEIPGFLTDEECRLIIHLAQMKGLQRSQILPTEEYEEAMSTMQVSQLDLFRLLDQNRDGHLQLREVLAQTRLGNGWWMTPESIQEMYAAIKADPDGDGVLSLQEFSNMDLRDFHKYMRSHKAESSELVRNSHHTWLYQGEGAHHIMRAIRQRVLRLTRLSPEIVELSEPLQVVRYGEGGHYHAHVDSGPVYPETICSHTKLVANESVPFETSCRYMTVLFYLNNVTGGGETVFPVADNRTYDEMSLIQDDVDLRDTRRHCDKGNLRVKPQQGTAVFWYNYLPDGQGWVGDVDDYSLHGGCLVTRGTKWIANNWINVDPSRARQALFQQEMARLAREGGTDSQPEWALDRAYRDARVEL
Experiment: co-IP; Co-IP Kit (Bersin); cell lysate with protease inhibitors incubated overnight at 4 °C with beads conjugated to anti-HIF1A/PHD4/NXPH4/IgG antibodies; western blot; some panels after lentiviral NXPH4 knockdown or overexpression

binding: binds
B1: Neurexophilin 4 (NXPH4) (protein, UniProt O95158 24-308)
chain: QIPESGRPQYLGLRPAAAGAGAPGQQLPEPRSSDGLGVGRAWSWAWPTNHTGALARAGAAGALPAQRTKRKPSIKAARAKKIFGWGDFYFRVHTLKFSLLVTGKIVDHVNGTFSVYFRHNSSSLGNLSVSIVPPSKRVEFGGVWLPGPVPHPLQSTLALEGVLPGLGPPLGMAAAAAGPGLGGSLGGALAGPLGGALGVPGAKESRAFNCHVEYEKTNRARKHRPCLYDPSQVCFTEHTQSQAAWLCAKPFKVICIFVSFLSFDYKLVQKVCPDYNFQSEHPYFG
